In the supplement of paper PMC3334620:
Over roughly 33,000 sequences, “E-score (-0.5 to 0.5)” has its median near -0.0059; the highest 2% begin near 0.26. This is one part of the list.

Biological target: T1, Cin5 (UniProt P40917)
T1 sequence: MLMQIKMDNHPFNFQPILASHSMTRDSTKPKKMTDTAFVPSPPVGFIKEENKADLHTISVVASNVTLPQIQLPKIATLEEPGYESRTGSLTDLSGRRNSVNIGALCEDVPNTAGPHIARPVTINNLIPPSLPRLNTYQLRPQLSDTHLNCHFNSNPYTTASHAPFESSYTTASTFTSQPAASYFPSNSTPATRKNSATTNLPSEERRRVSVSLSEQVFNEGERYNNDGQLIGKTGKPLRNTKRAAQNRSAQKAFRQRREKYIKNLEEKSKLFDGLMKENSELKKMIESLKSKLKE
Test: PBM E-score (8-mer binding enrichment) (E-score (-0.5 to 0.5)); higher = stronger / more preferred TF binding
Settings: protein concentration: 100 nM; construct: GST-full length
In short: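 Detection of bound protein used fluorescent anti-GST, with scans normalised by masliner. The proteins were GST-tagged yeast transcription factors applied at about 100-200 nM to universal all-10-mer Agilent arrays made double-stranded by primer extension. Each ungapped eight-base word, pooled with its reverse complement, was scored with an E-score from the Universal PBM Analysis Suite.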

Row | Sequence | PBM E-score
1 | AGTTCCTA | 0.0694
2 | ACGTTCAT | -0.0937
3 | AAGAATCT | -0.128
4 | GGGCCAGA | -0.265
5 | GACACCCA | -0.106
6 | GATCTCCA | -0.0586
7 | ACTCTTAG | -0.0953
8 | GATATCGA | 0.0864
9 | ATCCGCCA | -0.0147
10 | GAACCAAC | 0.0653
11 | GATACGAC | 0.0789
12 | GGCTTCCC | -0.126
13 | AGGTCGAT | 0.11
14 | GTGCCTTA | -0.0415
15 | GTTTAACA | -0.0762
16 | AGTACCTC | -0.104
17 | GAACAGGA | -0.126
18 | ATGTCTAA | 0.109
19 | AGTGATAC | 0.0142
20 | CCTCCACA | -0.0493
21 | CAAGTTGC | 0.067
22 | CGCCGTTA | -0.0979
23 | GGTTCCCA | -0.0888
24 | GGAATGAC | -0.078
25 | GTCACGAC | -0.0235

Row | Sequence | PBM E-score
26 | ATAACCAC | 0.223
27 | CCCAACAG | -0.17
28 | AAATCAGT | 0.0941
29 | ATTGGAGC | 0.116
30 | CAAACGCC | 0.0669
31 | CAGACGAC | -0.168
32 | ACGTTAGA | -0.0459
33 | AAGTCACA | -0.0425
34 | GAACTCCC | -0.00495
35 | GGAGCTTA | -0.0361
36 | GGGCCTCA | -0.137
37 | ACTTTATC | 0.0555
38 | AGCTGCAA | -0.123
39 | ACCGACTA | -0.265
40 | CGATTTGA | 0.0886
41 | GGGTGGAC | -0.0521
42 | GACCCCGA | -0.0484
43 | CAGCGCCC | -0.229
44 | CTAATTGC | 0.176
45 | GTCGGCAA | -0.191
46 | CCTGTTGC | 0.095
47 | GGGTCTCA | -0.198
48 | AATAGGCT | 0.0941
49 | AAGACCCG | -0.133
50 | GGGATAAC | 0.0275

Row | Sequence | PBM E-score
51 | CCGAGCGA | 0.0201
52 | CAAATGCC | -0.0795
53 | ACAACTAG | -0.0625
54 | GGTTCCAA | 0.00179
55 | AACAGCGC | -0.0369
56 | AAGCCTCA | -0.101
57 | TCTCCTAA | -0.0306
58 | ACTCCTCC | -0.164
59 | TCGAAAAA | 0.121
60 | AGGCATGA | -0.0554
61 | AAACCGTC | -0.205
62 | TACTTCGA | 0.183
63 | ACGTAAAC | 0.0855
64 | AATGCTAT | 0.117
65 | GGGCTAGA | -0.149
66 | GTTCTAAA | -0.0688
67 | CGGAGTTA | -0.0355
68 | CCCCGAGA | -0.0837
69 | GCCTACAA | 0.00108
70 | AACACTTG | -0.053
71 | TCGAGGAA | -0.127
72 | ACGTTTCC | -0.0884
73 | CGTCCGCA | -0.0867
74 | GATGATTA | 0.23
75 | CGCTCCAA | -0.133

Row | Sequence | PBM E-score
76 | CGCTCGTC | -0.208
77 | ACTGCACG | -0.0546
78 | ACGATGAC | -0.107
79 | CGCGTCCG | 0.069
80 | GCCCGACA | 0.0209
81 | AACCGATG | 0.112
82 | CCAAGATC | -0.0132
83 | ATCTTCCC | 0.0532
84 | AAATGTCT | -0.0156
85 | AATGAGCC | -0.112
86 | GTCAATCA | 0.0076
87 | AAAGCTGC | 0.0861
88 | ACCGGGCA | -0.169
89 | ATGCCTCG | -0.0381
90 | CATAAGAG | 0.113
91 | AGAAGCTC | -0.146
92 | AACGGTGG | -0.202
93 | CATGCAGC | -0.0897
94 | AGAGAGGG | -0.271
95 | GGAGTGCC | -0.0729
96 | AAATATAC | 0.178
97 | CGTATGGA | 0.0632
98 | CGACCAAA | 0.133
99 | GTTCTCCA | -0.0622
100 | AACTAGTT | 0.0267

Row | Sequence | PBM E-score
101 | CCATATAG | 0.0359
102 | TAGGTGGA | -0.0718
103 | GGATCATA | 0.0391
104 | ATATACCA | 0.156
105 | ATTAATGG | 0.156
106 | GCTGAGTA | 0.105
107 | GGCTAACA | -0.0786
108 | ACTCGTAC | -0.1
109 | ATACCGAC | -0.105
110 | ATTAACTA | 0.272
111 | CCAACTGG | -0.0609
112 | CCCTTAAG | -0.0301
113 | AGTCTATC | 0.0215
114 | CTCGTGGC | -0.111
115 | CCCCGATA | -0.0326
116 | GGTGAACC | -0.108
117 | CCTAAGTA | -0.0105
118 | AACGGCCT | -0.136
119 | AGTTAGAA | 0.144
120 | CCGGTGTA | -0.14
121 | CTAAAAGA | -0.153
122 | AATAACGC | -0.0661
123 | GCTTATCA | 0.285
124 | TATATTGA | 0.287
125 | ACAACATC | 0.0575

Row | Sequence | PBM E-score
126 | ATCCGATC | 0.215
127 | CTATGTAA | 0.167
128 | ATCGAATG | 0.207
129 | CGATCCAA | -0.108
130 | AGCACTAT | 0.103
131 | GAGGAGTA | -0.153
132 | GCAACGTA | 0.0948
133 | CACACTTA | 0.109
134 | AGGCCTGA | -0.00554
135 | AGTGGCTG | 0.0976
136 | CACGAGGC | -0.0926
137 | CGGCAAAA | -0.0807
138 | GCAAAAGC | -0.0287
139 | CGGTCGTA | -0.114
140 | ACGAGGCA | -0.149
141 | CAAGGTAG | -0.0812
142 | GGGGTCCA | -0.192
143 | CAGGAGGC | -0.0869
144 | GCCATCGA | 0.0417
145 | AACTAAAC | 0.153
146 | CGCCGGAG | -0.0759
147 | ATCTAAAT | 0.149
148 | CTTCGGTC | -0.0249
149 | CTTTCGCA | -0.0314
150 | ATCGTGAC | -0.0299

Row | Sequence | PBM E-score
151 | ATTCTCGA | 0.156
152 | GCTTAGTA | 0.227
153 | CAATTACC | 0.0856
154 | CCATAGTA | 0.178
155 | AGTGAACG | 0.0421
156 | CTGCTACC | -0.14
157 | ACTCCTTG | 0.0765
158 | ACGCTACC | -0.298
159 | AAATACGA | 0.12
160 | AGAGGCCC | -0.191
161 | ATTTTATC | 0.139
162 | AGCGATTC | 0.0462
163 | GAGGTTAA | -0.0963
164 | GCCAACCC | -0.182
165 | GCCTAAAA | -0.117
166 | CCTGCGCA | -0.191
167 | GTACCAAC | -0.0192
168 | ATCGAAAC | 0.0278
169 | CAGGCCCA | -0.269
170 | ACGCTGAC | 0.1
171 | ATCGGGTA | -0.0478
172 | TACATCGA | 0.126
